Earlier results as cited in patent US7833331B2, “Non-toxic corrosion-protection pigments based on cobalt” (University of Dayton, priority 2007, dated 2010).
Some results were stated once for a whole list of compounds, not compound by compound.

Conditions: reported solubilities; cited from earlier work

hexaaminecobalt(III) phosphomolybdate
solubility: ≤ 5.5×10^−4 mol/liter CoIII
